Assay results reported in US20250283871A1, “COMPOSITIONS AND METHODS FOR MODULATING THE INTERACTION BETWEEN SS18-SSX FUSION ONCOPROTEIN AND NUCLEOSOMES” (Dana-Farber Cancer Institute, Inc., priority 2020, published 2025).

B1: HLTF (protein, UniProt Q14527 1-1009, looked up)
Helicase-like transcription …: MSWMFKRDPVWKYLQTVQYGVHGNFPRLSYPTFFPRFEFQDVIPPDDFLTSDEEVDSVLFGSLRGHVVGLRYYTGVVNNNEMVALQRDPNNPYDKNAIKVNNVNGNQVGHLKKELAGALAYIMDNKLAQIEGVVPFGANNAFTMPLHMTFWGKEENRKAVSDQLKKHGFKLGPAPKTLGFNLESGWGSGRAGPSYSMPVHAAVQMTTEQLKTEFDKLFEDLKEDDKTHEMEPAEAIETPLLPHQKQALAWMVSRENSKELPPFWEQRNDLYYNTITNFSEKDRPENVHGGILADDMGLGKTLTAIAVILTNFHDGRPLPIERVKKNLLKKEYNVNDDSMKLGGNNTSEKADGLSKDASRCSEQPSISDIKEKSKFRMSELSSSRPKRRKTAVQYIESSDSEEIETSELPQKMKGKLKNVQSETKGRAKAGSSKVIEDVAFACALTSSVPTTKKKMLKKGACAVEGSKKTDVEERPRTTLIICPLSVLSNWIDQFGQHIKSDVHLNFYVYYGPDRIREPALLSKQDIVLTTYNILTHDYGTKGDSPLHSIRWLRVILDEGHAIRNPNAQQTKAVLDLESERRWVLTGTPIQNSLKDLWSLLSFLKLKPFIDREWWHRTIQRPVTMGDEGGLRRLQSLIKNITLRRTKTSKIKGKPVLELPERKVFIQHITLSDEERKIYQSVKNEGRATIGRYFNEGTVLAHYADVLGLLLRLRQICCHTYLLTNAVSSNGPSGNDTPEELRKKLIRKMKLILSSGSDEECAICLDSLTVPVITHCAHVFCKPCICQVIQNEQPHAKCPLCRNDIHEDNLLECPPEELARDSEKKSDMEWTSSSKINALMHALTDLRKKNPNIKSLVVSQFTTFLSLIEIPLKASGFVFTRLDGSMAQKKRVESIQCFQNTEAGSPTIMLLSLKAGGVGLNLSAASRVFLMDPAWNPAAEDQCFDRCHRLGQKQEVIITKFIVKDSVEENMLKIQNKKRELAAGAFGTKKPNADEMKQAKINEIRTLIDL
B2: TIMMDC1 (protein, UniProt Q9NPL8 1-285, looked up)
Complex I assembly factor …: MEVPPPAPRSFLCRALCLFPRVFAAEAVTADSEVLEERQKRLPYVPEPYYPESGWDRLRELFGKDEQQRISKDLANICKTAATAGIIGWVYGGIPAFIHAKQQYIEQSQAEIYHNRFDAVQSAHRAATRGFIRYGWRWGWRTAVFVTIFNTVNTSLNVYRNKDALSHFVIAGAVTGSLFRINVGLRGLVAGGIIGALLGTPVGGLLMAFQKYSGETVQERKQKDRKALHELKLEEWKGRLQVTEHLPEKIESSLQEDEPENDAKKIEALLNLPRNPSVIDKQDKD
B3: PKP2 (protein, UniProt Q99959 1-881, looked up)
Plakophilin-2: MAAPGAPAEYGYIRTVLGQQILGQLDSSSLALPSEAKLKLAGSSGRGGQTVKSLRIQEQVQQTLARKGRSSVGNGNLHRTSSVPEYVYNLHLVENDFVGGRSPVPKTYDMLKAGTTATYEGRWGRGTAQYSSQKSVEERSLRHPLRRLEISPDSSPERAHYTHSDYQYSQRSQAGHTLHHQESRRAALLVPPRYARSEIVGVSRAGTTSRQRHFDTYHRQYQHGSVSDTVFDSIPANPALLTYPRPGTSRSMGNLLEKENYLTAGLTVGQVRPLVPLQPVTQNRASRSSWHQSSFHSTRTLREAGPSVAVDSSGRRAHLTVGQAAAGGSGNLLTERSTFTDSQLGNADMEMTLERAVSMLEADHMLPSRISAAATFIQHECFQKSEARKRVNQLRGILKLLQLLKVQNEDVQRAVCGALRNLVFEDNDNKLEVAELNGVPRLLQVLKQTRDLETKKQITDHTVNLRSRNGWPGAVAHACNPSTLGGQGGRITRSGVRDQPDQHGLLWNLSSNDKLKNLMITEALLTLTENIIIPFSGWPEGDYPKANGLLDFDIFYNVTGCLRNMSSAGADGRKAMRRCDGLIDSLVHYVRGTIADYQPDDKATENCVCILHNLSYQLEAELPEKYSQNIYIQNRNIQTDNNKSIGCFGSRSRKVKEQYQDVPMPEEKSNPKGVEWLWHSIVIRMYLSLIAKSVRNYTQEASLGALQNLTAGSGPMPTSVAQTVVQKESGLQHTRKMLHVGDPSVKKTAISLLRNLSRNLSLQNEIAKETLPDLVSIIPDTVPSTDLLIETTASACYTLNNIIQNSYQNARDLLNTGGIQKIMAISAGDAYASNKASKAASVLLYSLWAHTELHHAYKKAQFKKTDFVNSRTAKAYHSLKD
B4: FASTKD5 (protein, UniProt Q7L8L6 28-764, looked up)
FAST kinase domain-containing …: VSYWNVSSTQHGGQDPPEHISLCHSAKKVKNICSTFSSRRILTTSSAHPGLEFSKTSSSKASTLQLGSPRATGVDEEDVEVFDSFENMRVFLQLRPEYRVHSYNASETSQLLSVSEGELILHKVRVNQNNLQAQVIVDYLCKLSSLPAEQHPVLLGSTSFALLCQLSVKKIQLFDTQDLINVLKAFVILGIPHSHSMLDVYETKCCHQVWEMNMDQLLLVADLWRYLGRKVPRFLNIFSSYLNLHWKDLSLSQLVHLIYVIGENRQVSQDLMQKLESLILKYIDLINLEEVGTICLGFFKSSTNLSEFVMRKIGDLACANIQHLSSRSLVNIVKMFRFTHVDHINFMKQIGEIAPQRIPSLGVQGVMHLTLYCSALRFLNEGVMNAVAASLPPRVAHCRSKDVAKILWSFGTLNYKPPNAEEFYSSLISEIHRKMPEFNQYPEHLPTCLLGLAFLEYFPVELIDFALSPGFVRLAQERTKFDLLKELYTLDGTVGIECPDYRGNRLSTHLQQEGSELLWYLAEKDMNSKPEFLETVFLLETMLGGPQYVKHHMILPHTRSSDLEVQLDVNLKPLPFNREATPAENVAKLRLEHVGVSLTDDLMNKLLKGKARGHFQGKTESEPGQQPMELENKAAVPLGGFLCNVADKSGAMEMAGLCPAACMQTPRMKLAVQFTNRNQYCYGSRDLLGLHNMKRRQLARLGYRVVELSYWEWLPLLKRTRLEKLAFLHEKVFTSAL
B5: GOLT1B (protein, UniProt Q9Y3E0 1-138, looked up)
Vesicle transport protein …: MISLTDTQKIGMGLTGFGVFFLFFGMILFFDKALLAIGNVLFVAGLAFVIGLERTFRFFFQKHKMKATGFFLGGVFVVLIGWPLIGMIFEIYGFFLLFRGFFPVVVGFIRRVPVLGSLLNLPGIRSFVDKVGESNNMV
B6: TM7SF2 (protein, UniProt O76062 1-418, looked up)
Delta(14)-sterol reductase …: MAPTQGPRAPLEFGGPLGAAALLLLLPATMFHLLLAARSGPARLLGPPASLPGLEVLWSPRALLLWLAWLGLQAALYLLPARKVAEGQELKDKSRLRYPINGFQALVLTALLVGLGMSAGLPLGALPEMLLPLAFVATLTAFIFSLFLYMKAQVAPVSALAPGGNSGNPIYDFFLGRELNPRICFFDFKYFCELRPGLIGWVLINLALLMKEAELRGSPSLAMWLVNGFQLLYVGDALWHEEAVLTTMDITHDGFGFMLAFGDMAWVPFTYSLQAQFLLHHPQPLGLPMASVICLINATGYYIFRGANSQKNTFRKNPSDPRVAGLETISTATGRKLLVSGWWGMVRHPNYLGDLIMALAWSLPCGVSHLLPYFYLLYFTALLVHREARDERQCLQKYGLAWQEYCRRVPYRIMPYIY
B7: SAMM50 (protein, UniProt Q9Y512 1-469, looked up)
Sorting and assembly …: MGTVHARSLEPLPSSGPDFGGLGEEAEFVEVEPEAKQEILENKDVVVQHVHFDGLGRTKDDIIICEIGDVFKAKNLIEVMRKSHEAREKLLRLGIFRQVDVLIDTCQGDDALPNGLDVTFEVTELRRLTGSYNTMVGNNEGSMVLGLKLPNLLGRAEKVTFQFSYGTKETSYGLSFFKPRPGNFERNFSVNLYKVTGQFPWSSLRETDRGMSAEYSFPIWKTSHTVKWEGVWRELGCLSRTASFAVRKESGHSLKSSLSHAMVIDSRNSSILPRRGALLKVNQELAGYTGGDVSFIKEDFELQLNKQLIFDSVFSASFWGGMLVPIGDKPSSIADRFYLGGPTSIRGFSMHSIGPQSEGDYLGGEAYWAGGLHLYTPLPFRPGQGGFGELFRTHFFLNAGNLCNLNYGEGPKAHIRKLAECIRWSYGAGIVLRLGNIARLELNYCVPMGVQTGDRICDGVQFGAGIRFL
B8: MED16 (protein, UniProt Q9Y2X0 1-877, looked up)
Mediator of RNA polymerase II …: MCDLRRPAAGGMMDLAYVCEWEKWSKSTHCPSVPLACAWSCRNLIAFTMDLRSDDQDLTRMIHILDTEHPWDLHSIPSEHHEAITCLEWDQSGSRLLSADADGQIKCWSMADHLANSWESSVGSLVEGDPIVALSWLHNGVKLALHVEKSGASSFGEKFSRVKFSPSLTLFGGKPMEGWIAVTVSGLVTVSLLKPSGQVLTSTESLCRLRGRVALADIAFTGGGNIVVATADGSSASPVQFYKVCVSVVSEKCRIDTEILPSLFMRCTTDLNRKDKFPAITHLKFLARDMSEQVLLCASSQTSSIVECWSLRKEGLPVNNIFQQISPVVGDKQPTILKWRILSATNDLDRVSAVALPKLPISLTNTDLKVASDTQFYPGLGLALAFHDGSVHIVHRLSLQTMAVFYSSAAPRPVDEPAMKRPRTAGPAVHLKAMQLSWTSLALVGIDSHGKLSVLRLSPSMGHPLEVGLALRHLLFLLEYCMVTGYDWWDILLHVQPSMVQSLVEKLHEEYTRQTAALQQVLSTRILAMKASLCKLSPCTVTRVCDYHTKLFLIAISSTLKSLLRPHFLNTPDKSPGDRLTEICTKITDVDIDKVMINLKTEEFVLDMNTLQALQQLLQWVGDFVLYLLASLPNQGSLLRPGHSFLRDGTSLGMLRELMVVIRIWGLLKPSCLPVYTATSDTQDSMSLLFRLLTKLWICCRDEGPASEPDEALVDECCLLPSQLLIPSLDWLPASDGLVSRLQPKQPLRLQFGRAPTLPGSAATLQLDGLARAPGQPKIDHLRRLHLGACPTEECKACTRCGCVTMLKSPNRTTAVKQWEQRWIKNCLAVEGRGPDACVTSRASEEAPAFVQLGPQSTHHSPRTPRSLDHLHPEDRP

Tested on: BAF complex subunits and histone proteins
Assay: Mass spectrometry proteomics of purified HA-SS18 WT and HA-SS18-SSX1 complexes (Tables 5A-5E)
Parameters: species or system human
Details: HA-SS18SSX1_NE_peptides: protein co-purified with HA-SS18-SSX1 BAF complexes from soluble nuclear extract (NE), HEK-293T cells

What does the source list for B1?
Total (peptides): 2; Unique (peptides): 2

How did the “Total (peptides)” value turn out when B2 was run?
Its value is 1.

And the “Unique (peptides)” value?
The value was 1.

For B3, which “Total (peptides)” value is on record?
The value was 2.

And the “Unique (peptides)” value?
Its value is 1.

What does the source list for B4?
Total (peptides): 1; Unique (peptides): 1

For B5, which “Total (peptides)” value is on record?
Its value is 2.

What about the “Unique (peptides)” value of the same molecule?
The value was 1.

Which results are given for B6?
Total (peptides): 2; Unique (peptides): 2

With B7 as the molecule, how does the “Total (peptides)” value read?
Its value is 2.

And the “Unique (peptides)” value?
Its value is 2.

B8 was tested. Which “Total (peptides)” value did it give?
The value was 2.

And the “Unique (peptides)” value?
Its value is 1.

Same assay, conditions: HA-SS18WT_NE_peptides: HA-SS18 WT complexes purified from nuclear extract (NE), HEK-293T; label = protein identified (Gene Symbol)

B7 was tested. Which “Total (peptides)” value did it give?
Its value is 4.

What about the “Unique (peptides)” value of the same molecule?
The value was 4.

Same assay, conditions: HA-SS18WT_NE_peptides: proteins co-purified with HA-SS18 WT from nuclear extract (NE), HEK-293T

Which results are given for B4?
Total (peptides): 1; Unique (peptides): 1
